Measured data: PubChem BioAssay AID686937 (Drosophila RNAi Screening Center, 2013)

Test: 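Genes in the fly needed for secretion of protein constitutively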 (primary screen)
Cell system: Drosophila S2 cells expressing secreted horseradish peroxidase
Reagents: long dsRNA against Drosophila genes
Duration: about 5.5 days (5 days dsRNA, then 12 h reporter induction)
Conditions: reporter expression induced after 5 days of dsRNA, read 12 h later; inducer not stated
Measured: 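Chemiluminescent measurement of peroxidase in the medium 12 h after reporter induction, following 5 days of dsRNA, given as a z-score per plate; higher means more secretion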
Direction: z-score: higher = more reporter secreted into medium
The deposit covers about 23,000 reagents; shown is a random part of those that have a named target and a result. 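Reduced-secretion tags in replicate 1 do not always agree with the z-scores; no criterion for assigning the tags was given.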 Reagents against one gene are numbered here. A plus sign joins genes that one reagent is predicted to hit. Reagent sequences are not shown. The record does not give: the amount of reagent.

| Gene | reagent | z-score, replicate 1 | z-score, replicate 2 | z-score, replicate 3 | z-score, replicate 4 | phenotype, replicate 1 |
| --- | --- | --- | --- | --- | --- | --- |
| Sf3a1 | 1 | -5.01 | -2.1 | – | – | reduced secretion |
| CG13721 | 1 | 0.28 | 0.48 | – | – | – |
| CG11912 | 1 | 0.23 | 0.25 | – | – | – |
| Obp56c | 1 | 0.19 | 0.51 | 0.39 | 0.42 | – |
| Obp56c | 2 | 0.56 | -0.24 | – | – | – |
| CG8925 | 1 | 0.09 | 0.45 | – | – | – |
| CG8925 | 2 | 0.35 | 0.52 | – | – | – |
| CG8925 | 3 | 0.22 | 0.11 | – | – | – |
| CG1674 | 1 | 0.66 | -0.69 | – | – | – |
| CG1674 | 2 | 0.37 | 0.36 | – | – | – |
| CG8435 | 1 | -1.62 | -1.93 | – | – | reduced secretion |
| rpk | 1 | 0.13 | 0.32 | – | – | – |
| rpk | 2 | 2.16 | -0.39 | – | – | – |
| CG33506 | 1 | 0.17 | 0.39 | – | – | – |
| Hsc70-1 | 1 | -0.85 | -1.03 | – | – | – |
| BBS1 | 1 | 0.71 | 0.64 | – | – | – |
| Gpa2 | 1 | 0.08 | 0.07 | – | – | – |
| gem | 1 | 0.46 | 0.55 | – | – | – |
| gem | 2 | 0.24 | -0.13 | – | – | – |
| Np | 1 | 0.41 | 0.42 | – | – | – |
| Np | 2 | 0.02 | 0.06 | – | – | – |
| Np | 3 | -0.03 | 0.29 | – | – | – |
| vimar | 1 | -0.3 | -0.65 | – | – | – |
| mip40 | 1 | 0.49 | 0.13 | – | – | – |
| Bug22 | 1 | -0.04 | -0.21 | – | – | – |
| CG5910 | 1 | 0.4 | 0.44 | – | – | – |
| CG31809 | 1 | -0.03 | 0.2 | – | – | – |
| CG5177 | 1 | -0.04 | -0.04 | – | – | – |
| CG9083 + Tpc2 | 1 | 0.04 | 0.05 | – | – | – |
| CG6709 + Hez | 1 | 0.3 | 0.27 | – | – | – |
| CG6709 + Hez | 2 | 0.48 | 0.13 | – | – | – |
| CG42700 | 1 | -2.35 | -2.38 | – | – | reduced secretion |
| CG42700 | 2 | 0.3 | 0.02 | – | – | – |
| CG10804 | 1 | 0.48 | 0.32 | – | – | – |
| CG10205 | 1 | -0.85 | -0.54 | – | – | – |
| Smvt | 1 | 0.55 | 0.47 | – | – | – |
| CG5292 | 1 | 0.34 | -0.02 | – | – | – |
| Cp36 | 1 | 0.21 | 0.4 | – | – | – |
| CG7215 + Prx5 | 1 | 0.41 | 0.48 | – | – | – |
| CG7215 + Prx5 | 2 | 0.23 | 0.16 | – | – | – |
| Ssl2 | 1 | 0.34 | 0.52 | – | – | – |
| Ssl2 | 2 | 0.11 | -0.14 | – | – | – |
| mask | 1 | -0.33 | -1.21 | – | – | – |
| mask | 2 | -0.69 | -0.31 | – | – | – |
| mask | 3 | -1.1 | -1.12 | – | – | – |
| CG9458 | 1 | -0.01 | 0.5 | – | – | – |
| CG15706 | 1 | 0.25 | 0.37 | – | – | – |
| CG7201 | 1 | 0.31 | 0.44 | – | – | – |
| mRpL3 | 1 | 0.25 | 0.02 | – | – | – |
| GstE3 | 1 | 0.26 | 0.21 | – | – | – |
| CG42521 | 1 | 0.69 | 0.55 | – | – | – |
| CG13123 | 1 | 0.57 | 0.4 | – | – | – |
| Spn77Ba | 1 | 0.14 | 0.19 | – | – | – |
| Mob4 | 1 | -0.12 | -0.28 | – | – | – |
| Tsp | 1 | 0.26 | 0.27 | – | – | – |
| Tsp | 2 | 0.05 | -0.01 | – | – | – |
